The supplement of paper PMC10331698
± gives the standard deviation of the averaged measurements. Most entries show no effect beyond the scatter of the controls.

Columns and labels:
Assay in all cases: level (log10 ratio to DMSO vehicle control); higher = higher biomarker level / cell amount than vehicle control
[1] = compound: FC(F)(F)C(F)(F)C(F)(F)C(F)(F)C(F)(F)C(F)(F)C(F)(F)I [1-Iodopentadecafluoroheptane]; settings: in DMSO
Description: (§1)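 BioMAP Diversity Plus panel of 12 human primary cell co-culture systems (3C, 4H, LPS, SAg, BT, BF4T, BE3C, CASM3C, HDF3CGF, KF3CT, MyoF, Mphg). Compounds were added 1 h before stimulation and left for 24 h (MyoF 48 h; BT 72 h for soluble read-outs or 6 d for IgG). Biomarkers were read by ELISA, cytotoxicity by SRB, PBMC viability and proliferation by Alamar Blue. Each well value was divided by the mean of 8 DMSO control wells on the same plate and log10 transformed; duplicate blinded samples were tested at 4 concentrations.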

[2] = compound: O=P(O)(O)CCC(F)(F)C(F)(F)C(F)(F)C(F)(F)C(F)(F)C(F)(F)C(F)(F)C(F)(F)F [((Perfluorooctyl)ethyl)phosphonic acid]; settings: 2200 nM; in DMSO
Description: as §1

[3] = compound: O=C(O)C=CC(F)(C(F)(F)F)C(F)(F)F [3-(Perfluoroisopropyl)-2-propenoic acid]; settings: in DMSO
Description: as §1

[4] = compound: O=C(O)C(F)(F)C(F)(F)C(F)(F)C(F)(F)C(F)(F)C(F)(F)C(F)(F)C(F)F [9-H-Perfluorononanoic acid]; settings: 2200 nM; in DMSO
Description: as §1

[5] = compound: O=S(=O)(Cl)C(F)(F)C(F)(F)C(F)(F)C(F)(F)C(F)(F)C(F)(F)C(F)(F)C(F)(F)F [Perfluoro-1-octanesulfonyl chloride]; settings: 2200 nM; in DMSO
Description: as §1

Perfluorobutanoic acid = compound: O=C(O)C(F)(F)C(F)(F)C(F)(F)F [Perfluorobutanoic acid]; settings: 2200 nM; in DMSO
Description: as §1

[6] = compound: C=C(C)C(=O)OCC(F)(F)C(F)(F)C(F)(F)F [2,2,3,3,4,4,4-Heptafluorobutyl methacrylate]; settings: 2200 nM; in DMSO
Description: as §1

[7] = compound: C=CC(=O)OCC(F)(F)C(F)(F)C(F)(F)C(F)(F)COC(=O)C=C [1H,1H,6H,6H-Perfluorohexane-1,6-diol diacrylate]; settings: 2200 nM; in DMSO
Description: as §1

[8] = compound: OCC(F)(F)C(F)(F)C(F)(F)C(F)(F)C(F)(F)C(F)(F)C(F)(F)C(F)(F)C(F)(F)C(F)(F)C(F)(F)F [11:1 Fluorotelomer alcohol]; settings: in DMSO
Description: as §1

[9] = compound: O=C(O)C(F)(F)C(F)(F)OC(F)(F)F [Perfluoro-3-methoxypropanoic acid]; settings: 2200 nM; in DMSO
Description: as §1

Perfluoroundecanoic acid = compound: O=C(O)C(F)(F)C(F)(F)C(F)(F)C(F)(F)C(F)(F)C(F)(F)C(F)(F)C(F)(F)C(F)(F)C(F)(F)F [Perfluoroundecanoic acid]; settings: in DMSO
Description: as §1

[10] = compound: OCCC(F)(F)C(F)(F)C(F)(F)C(F)(F)C(F)(F)C(F)(F)C(F)(F)C(F)(F)F [8:2 Fluorotelomer alcohol]; settings: 2200 nM; in DMSO
Description: as §1

Perfluorooctanamide = compound: NC(=O)C(F)(F)C(F)(F)C(F)(F)C(F)(F)C(F)(F)C(F)(F)C(F)(F)F [Perfluorooctanamide]; settings: 2200 nM; in DMSO
Description: as §1

[11] = compound: FC(F)(F)C(F)(F)C(F)(F)C(F)(F)C(F)(F)C(F)(F)C(F)(F)CCI [1-Iodo-1H,1H,2H,2H-perfluorononane]; settings: in DMSO
Description: as §1

Perfluoropropanoic acid = compound: O=C(O)C(F)(F)C(F)(F)F [Perfluoropropanoic acid]; settings: 2200 nM; in DMSO
Description: as §1

[12] = compound: O=C(O)C(F)(F)OC(F)(F)C(F)(F)OC(F)(F)C(F)(F)C(F)(F)C(F)(F)F [Perfluoro-3,6-dioxadecanoic acid]; settings: 2200 nM; in DMSO
Description: as §1

[13] = compound: FC(F)C(F)(F)COCC1CO1 [((2,2,3,3-Tetrafluoropropoxy)methyl)oxirane]; settings: 2200 nM; in DMSO
Description: as §1

[14] = compound: O=C(O)C(F)(F)OC(F)(F)C(F)(F)OC(F)(F)C(=O)O [Perfluoro-3,6-dioxaoctane-1,8-dioic acid]; settings: 2200 nM; in DMSO
Description: as §1

| Test System | level (log10) ([1]; 740 nM) | level (log10) ([1]; 2200 nM) | level (log10) ([1]; 6700 nM) | level (log10) ([1]; 20000 nM) | level (log10) [2] | level (log10) ([3]; 2200 nM) | level (log10) ([3]; 6700 nM) | level (log10) ([3]; 20000 nM) | level (log10) ([3]; 60000 nM) | level (log10) [4] | level (log10) [5] | level (log10) (Perfluorobutanoic acid) | level (log10) [6] | level (log10) [7] | level (log10) ([8]; 370 nM) | level (log10) ([8]; 1100 nM) | level (log10) ([8]; 3300 nM) | level (log10) ([8]; 10000 nM) | level (log10) [9] | level (log10) (Perfluoroundecanoic acid; 740 nM) | level (log10) (Perfluoroundecanoic acid; 2200 nM) | level (log10) [10] | level (log10) (Perfluorooctanamide) | level (log10) ([11]; 740 nM) | level (log10) ([11]; 2200 nM) | level (log10) ([11]; 6700 nM) | level (log10) ([11]; 20000 nM) | level (log10) (Perfluoropropanoic acid) | level (log10) [12] | level (log10) [13] | level (log10) [14] |
| --- | --- | --- | --- | --- | --- | --- | --- | --- | --- | --- | --- | --- | --- | --- | --- | --- | --- | --- | --- | --- | --- | --- | --- | --- | --- | --- | --- | --- | --- | --- | --- |
| HDF3CGF:CXCL9/MIG | -0.008 ± 0.027 | -0.011 ± 0.018 | -0.016 ± 0.0042 | 0.0015 ± 0.0064 | 0.093 ± 0.016 | 0.011 ± 0.014 | 0.017 ± 0.0071 | 0.02 ± 0.011 | 0.011 ± 0.023 | -0.0405 ± 0.033 | -0.0055 ± 0.0021 | 0.025 ± 0.02 | -0.009 ± 0.011 | -0.303 ± 0.021 | -0.01 ± 0.0042 | 0.009 | -0.0145 ± 0.00071 | 0.009 ± 0.05 | 0.007 ± 0.0057 | -0.0005 ± 0.032 | 0.001 ± 0.0057 | -0.0075 ± 0.03 | -0.011 ± 0.0099 | 0.0125 ± 0.011 | -0.0015 ± 0.015 | -0.035 ± 0.0071 | -0.0875 ± 0.049 | -0.0285 ± 0.047 | 0.007 ± 0.038 | 0.0035 ± 0.022 | -0.0045 ± 0.0092 |
| HDF3CGF:CXCL10/IP-10 | 0.0005 ± 0.023 | -0.013 ± 0.0014 | 0.0025 ± 0.0021 | -0.026 ± 0.0071 | 0.073 ± 0.0028 | 0.005 ± 0.079 | -0.007 ± 0.034 | 0.0025 ± 0.035 | -0.001 ± 0.027 | -0.0215 ± 0.022 | 0.0025 ± 0.022 | 0 ± 0.0071 | -0.0015 ± 0.044 | -0.128 ± 0.0085 | -0.0165 ± 0.005 | -0.0435 ± 0.015 | -0.0725 ± 0.0064 | -0.039 ± 0.02 | -0.0125 ± 0.0021 | -0.013 ± 0.0071 | -0.0085 ± 0.0021 | -0.0085 ± 0.00071 | -0.0085 ± 0.015 | -0.0245 ± 0.028 | 0.002 ± 0.0042 | -0.0265 ± 0.0035 | -0.0645 ± 0.03 | 0.0075 ± 0.028 | -0.0385 ± 0.028 | -0.033 ± 0.014 | -0.0095 ± 0.022 |
| HDF3CGF:CXCL11/I-TAC | 0.001 ± 0.013 | -0.022 ± 0.0057 | -0.019 ± 0.0057 | -0.0405 ± 0.0092 | 0.11 ± 0.013 | 0.0025 ± 0.036 | -0.004 ± 0.0014 | 0.015 ± 0.025 | 0.002 ± 0.021 | -0.0325 ± 0.025 | -0.022 | 0.0105 ± 0.021 | -0.0245 ± 0.0035 | -0.166 ± 0.036 | -0.0345 ± 0.0064 | -0.0245 ± 0.03 | -0.0655 ± 0.005 | -0.0155 ± 0.04 | 0.002 ± 0.034 | -0.01 ± 0.034 | -0.033 ± 0.0028 | -0.005 ± 0.05 | 0.0075 ± 0.026 | -0.0045 ± 0.021 | -0.015 | -0.0295 ± 0.005 | -0.094 ± 0.018 | -0.014 ± 0.057 | -0.042 ± 0.054 | -0.0135 ± 0.042 | 0.003 ± 0.0028 |
| HDF3CGF:Collagen I | 0.03 ± 0.03 | 0.0005 ± 0.0092 | 0.017 ± 0.033 | -0.005 ± 0.017 | 0.0165 ± 0.07 | 0.022 ± 0.078 | -0.0205 ± 0.043 | -0.0065 ± 0.023 | 0.0475 ± 0.035 | 0.0325 ± 0.14 | -0.0295 ± 0.018 | 0.0185 ± 0.032 | -0.016 | 0.051 ± 0.045 | 0.3 ± 0.017 | 0.438 ± 0.0099 | 0.471 ± 0.03 | 0.394 ± 0.062 | 0.027 ± 0.13 | 0.0235 ± 0.015 | 0.021 ± 0.054 | -0.003 ± 0.037 | 0.0275 ± 0.1 | -0.02 ± 0.064 | -0.057 ± 0.033 | 0.0105 ± 0.042 | -0.011 ± 0.058 | 0.023 ± 0.05 | -0.0035 ± 0.097 | 0.0255 ± 0.096 | 0.009 ± 0.12 |
| HDF3CGF:Collagen III | -0.0255 ± 0.00071 | -0.01 ± 0.0099 | -0.024 ± 0.014 | -0.023 ± 0.028 | -0.0665 ± 0.018 | -0.0075 ± 0.042 | -0.0125 ± 0.00071 | 0.009 ± 0.0014 | 0.033 ± 0.038 | -0.0545 ± 0.037 | 0.0135 ± 0.032 | 0.0115 ± 0.039 | -0.127 ± 0.052 | 0.12 ± 0.073 | 0.0815 ± 0.044 | 0.2 ± 0.0021 | 0.168 ± 0.057 | 0.171 ± 0.0042 | 0.004 ± 0.023 | -0.0025 ± 0.0021 | -0.009 ± 0.0071 | 0.042 ± 0.033 | 0.013 ± 0.018 | -0.0005 ± 0.021 | -0.0035 ± 0.025 | -0.063 ± 0.023 | -0.138 ± 0.028 | -0.0215 ± 0.052 | -0.0015 ± 0.039 | -0.016 ± 0.0099 | 0.0025 ± 0.039 |
| HDF3CGF:EGFR | 0.005 ± 0.04 | -0.0295 ± 0.022 | 0.011 ± 0.02 | 0.0135 ± 0.042 | -0.016 | -0.0085 ± 0.023 | -0.0025 ± 0.005 | 0.0015 ± 0.005 | 0.0265 ± 0.025 | 0.0155 ± 0.025 | -0.0505 ± 0.087 | 0.017 ± 0.052 | -0.0155 ± 0.083 | 0.034 ± 0.021 | 0.0075 ± 0.028 | 0.034 ± 0.024 | 0.044 ± 0.064 | 0.0275 ± 0.083 | -0.0095 ± 0.0092 | -0.0425 ± 0.056 | -0.044 ± 0.0028 | -0.015 ± 0.11 | 0.042 ± 0.0042 | 0.019 ± 0.02 | 0.019 ± 0.02 | 0.016 | 0.0295 ± 0.023 | 0.008 ± 0.031 | -0.043 ± 0.025 | 0.016 ± 0.0014 | -0.005 ± 0.021 |
| HDF3CGF:M-CSF | 0.002 ± 0.0085 | -0.0105 ± 0.0078 | -0.0165 ± 0.018 | -0.0165 ± 0.0064 | 0.0395 ± 0.005 | -0.0075 ± 0.016 | -0.0005 ± 0.0021 | 0.001 ± 0.0028 | 0 ± 0.0057 | 0.0085 ± 0.013 | -0.0225 ± 0.042 | 0.0105 ± 0.021 | 0.044 ± 0.0042 | -0.123 ± 0.029 | 0.0225 ± 0.028 | 0.0115 ± 0.016 | 0.0095 ± 0.032 | -0.003 ± 0.021 | -0.011 ± 0.0057 | 0.0275 ± 0.0064 | 0.031 ± 0.0071 | -0.0125 ± 0.032 | -0.0055 ± 0.023 | 0.014 ± 0.0028 | -0.019 ± 0.0099 | -0.0895 ± 0.049 | -0.12 ± 0.064 | -0.01 ± 0.031 | -0.043 ± 0.0071 | -0.005 ± 0.035 | -0.0035 ± 0.00071 |
